The target in assay [1] is TRIM29 (endogenous) (human (endogenous in SUNE1 and HK1)) (UniProt Q14134). Nature of the assay: cross-linking; cell lysates (SUNE1, HK1 or HEK293T) treated with 5 mM EGS or DSS for 15 min at RT, quenched with 40 mM Tris-HCl, western blot (anti-TRIM29 or anti-Myc); with or without USP18 or TRIM21 overexpression.
In assay [2] the target is T1, USP18 (endogenous) (human (endogenous in SUNE1 and HK1)) (UniProt Q9UMW8).
T1 sequence: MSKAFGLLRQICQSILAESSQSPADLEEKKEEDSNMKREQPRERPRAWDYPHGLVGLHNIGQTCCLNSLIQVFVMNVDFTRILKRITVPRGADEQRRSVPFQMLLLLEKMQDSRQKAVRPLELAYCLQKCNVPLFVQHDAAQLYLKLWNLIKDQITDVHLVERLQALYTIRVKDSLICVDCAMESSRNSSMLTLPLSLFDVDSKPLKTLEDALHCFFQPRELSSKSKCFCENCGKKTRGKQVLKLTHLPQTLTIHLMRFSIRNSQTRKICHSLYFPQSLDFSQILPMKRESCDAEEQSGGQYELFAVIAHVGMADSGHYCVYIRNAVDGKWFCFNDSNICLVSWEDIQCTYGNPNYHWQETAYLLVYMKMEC
Briefly: co-IP; endogenous proteins in SUNE1 and HK1 lysates; anti-USP18 or anti-TRIM21 antibody overnight at 4 °C, Protein A/G magnetic beads, western blot. In general terms: A western blot detects proteins with antibodies after separation by electrophoresis.

Protein sequences, listed by entry. Tags and fused reporters are not part of them.
UniProt P19474: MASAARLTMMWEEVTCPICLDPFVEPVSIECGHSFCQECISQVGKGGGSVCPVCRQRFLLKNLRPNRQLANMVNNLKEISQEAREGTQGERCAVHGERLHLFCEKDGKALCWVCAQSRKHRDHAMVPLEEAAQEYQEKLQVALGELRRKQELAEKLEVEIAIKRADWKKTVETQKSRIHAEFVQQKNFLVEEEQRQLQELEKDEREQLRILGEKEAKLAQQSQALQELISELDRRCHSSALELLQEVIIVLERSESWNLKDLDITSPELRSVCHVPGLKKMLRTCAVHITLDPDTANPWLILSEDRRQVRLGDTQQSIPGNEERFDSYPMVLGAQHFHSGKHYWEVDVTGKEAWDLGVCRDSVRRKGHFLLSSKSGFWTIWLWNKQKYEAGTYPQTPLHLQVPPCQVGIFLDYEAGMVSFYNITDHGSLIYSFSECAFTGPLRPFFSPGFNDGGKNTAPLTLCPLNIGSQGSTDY

Assay [3] has as its target TRIM21 (endogenous) (human (endogenous in SUNE1 and HK1)) (UniProt P19474). The assay is described as above.
In assay [4] the target is TRIM21-Flag (human) (UniProt P19474). Nature of the assay: co-IP; tagged bait (anti-Flag or anti-Myc) from transfected SUNE1 or HEK293T lysates; co-transfected tagged or endogenous partner found by western blot.
The target of assay [5] is TRIM29 (endogenous) (human (endogenous in SUNE1 and HK1)) (UniProt Q14134). Briefly: native gel or EMSA; native-PAGE immunoblot (anti-TRIM29 or anti-Myc) of lysates of SUNE1, HK1 or HEK293T cells; with or without USP18 or TRIM21 overexpression.
A further assay concerns the target TRIM21-YFP (human) (UniProt P19474). Nature of the assay: FRET or BRET; acceptor (YFP) photobleaching in fixed HEK293T cells co-transfected with CFP and YFP fusions, 24 h after transfection; E_FRET = 1 − (F_prebleach/F_postbleach) of the donor; 10 cells.
Assay [6] concerns the target T2, TRIM29-Myc (human) (UniProt Q14134).
T2 sequence: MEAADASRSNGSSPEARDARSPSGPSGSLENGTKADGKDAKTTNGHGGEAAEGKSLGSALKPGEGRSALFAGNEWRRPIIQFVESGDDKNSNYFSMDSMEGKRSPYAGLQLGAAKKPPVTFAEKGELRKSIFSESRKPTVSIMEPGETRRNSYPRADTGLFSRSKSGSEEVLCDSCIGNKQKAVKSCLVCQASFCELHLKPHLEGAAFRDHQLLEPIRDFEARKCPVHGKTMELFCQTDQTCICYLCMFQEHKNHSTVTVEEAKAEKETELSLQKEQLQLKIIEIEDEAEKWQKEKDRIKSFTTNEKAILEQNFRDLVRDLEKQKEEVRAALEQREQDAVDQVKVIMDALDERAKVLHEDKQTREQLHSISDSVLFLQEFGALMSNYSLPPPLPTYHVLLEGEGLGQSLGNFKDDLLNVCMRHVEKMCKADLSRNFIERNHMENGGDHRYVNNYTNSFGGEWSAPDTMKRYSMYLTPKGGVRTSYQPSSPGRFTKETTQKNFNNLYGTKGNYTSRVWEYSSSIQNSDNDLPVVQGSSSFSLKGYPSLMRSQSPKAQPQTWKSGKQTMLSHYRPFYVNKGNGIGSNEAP
Briefly: cross-linking; cell lysates (SUNE1, HK1 or HEK293T) treated with 5 mM EGS or DSS for 15 min at RT, quenched with 40 mM Tris-HCl, western blot (anti-TRIM29 or anti-Myc); with or without USP18 or TRIM21 overexpression.

The target in assay [7] is T2, TRIM29-Myc (human). Briefly: co-IP; anti-Myc IP from SUNE1 and HK1 cells transfected with TRIM29-HA and TRIM29-Myc, with or without USP18-Flag (or TRIM21 overexpression); blot anti-HA.
Assay [8] has as its target T2, TRIM29-Myc (human). Briefly: native gel or EMSA; native-PAGE immunoblot (anti-TRIM29 or anti-Myc) of lysates of SUNE1, HK1 or HEK293T cells; with or without USP18 or TRIM21 overexpression.
Assay [9] addresses TRIM21-Flag (human) (UniProt P19474). Briefly: co-IP; anti-Flag IP from WT or USP18-KO SUNE1 and HK1 cells co-transfected with TRIM21-Flag and TRIM29-HA; blot anti-HA.
The next assay has as its target TRIM29-Myc K561R (human) (UniProt Q14134). Nature of the assay: cross-linking; cell lysates (SUNE1, HK1 or HEK293T) treated with 5 mM EGS or DSS for 15 min at RT, quenched with 40 mM Tris-HCl, western blot (anti-TRIM29 or anti-Myc); with or without USP18 or TRIM21 overexpression.

No constants are given. Whether binding was seen depends on the method and setting. For some assays here: Binding seen in cells or lysates may run through a third protein. Some entries that bind do so weakly or less than the wild type. For some assays here: Where a sequence is shown, tags or fusion partners need not be part of it.

B1: TRIM29 (endogenous) (protein, UniProt Q14134 1-588)
chain: MEAADASRSNGSSPEARDARSPSGPSGSLENGTKADGKDAKTTNGHGGEAAEGKSLGSALKPGEGRSALFAGNEWRRPIIQFVESGDDKNSNYFSMDSMEGKRSPYAGLQLGAAKKPPVTFAEKGELRKSIFSESRKPTVSIMEPGETRRNSYPRADTGLFSRSKSGSEEVLCDSCIGNKQKAVKSCLVCQASFCELHLKPHLEGAAFRDHQLLEPIRDFEARKCPVHGKTMELFCQTDQTCICYLCMFQEHKNHSTVTVEEAKAEKETELSLQKEQLQLKIIEIEDEAEKWQKEKDRIKSFTTNEKAILEQNFRDLVRDLEKQKEEVRAALEQREQDAVDQVKVIMDALDERAKVLHEDKQTREQLHSISDSVLFLQEFGALMSNYSLPPPLPTYHVLLEGEGLGQSLGNFKDDLLNVCMRHVEKMCKADLSRNFIERNHMENGGDHRYVNNYTNSFGGEWSAPDTMKRYSMYLTPKGGVRTSYQPSSPGRFTKETTQKNFNNLYGTKGNYTSRVWEYSSSIQNSDNDLPVVQGSSSFSLKGYPSLMRSQSPKAQPQTWKSGKQTMLSHYRPFYVNKGNGIGSNEAP
On to B1, for which the binding result (in assay [1]; in assay [2]; in [3]; with TRIM21-Flag (human) [4]; in assay [5]) was “binds” each time.

B2: TRIM29-CFP (protein, UniProt Q14134 1-588)
chain: MEAADASRSNGSSPEARDARSPSGPSGSLENGTKADGKDAKTTNGHGGEAAEGKSLGSALKPGEGRSALFAGNEWRRPIIQFVESGDDKNSNYFSMDSMEGKRSPYAGLQLGAAKKPPVTFAEKGELRKSIFSESRKPTVSIMEPGETRRNSYPRADTGLFSRSKSGSEEVLCDSCIGNKQKAVKSCLVCQASFCELHLKPHLEGAAFRDHQLLEPIRDFEARKCPVHGKTMELFCQTDQTCICYLCMFQEHKNHSTVTVEEAKAEKETELSLQKEQLQLKIIEIEDEAEKWQKEKDRIKSFTTNEKAILEQNFRDLVRDLEKQKEEVRAALEQREQDAVDQVKVIMDALDERAKVLHEDKQTREQLHSISDSVLFLQEFGALMSNYSLPPPLPTYHVLLEGEGLGQSLGNFKDDLLNVCMRHVEKMCKADLSRNFIERNHMENGGDHRYVNNYTNSFGGEWSAPDTMKRYSMYLTPKGGVRTSYQPSSPGRFTKETTQKNFNNLYGTKGNYTSRVWEYSSSIQNSDNDLPVVQGSSSFSLKGYPSLMRSQSPKAQPQTWKSGKQTMLSHYRPFYVNKGNGIGSNEAP
For the molecule B2, the binding entry with TRIM21-YFP (human) was “binds”.

B3: TRIM29-Myc (protein, UniProt Q14134 1-588)
chain: MEAADASRSNGSSPEARDARSPSGPSGSLENGTKADGKDAKTTNGHGGEAAEGKSLGSALKPGEGRSALFAGNEWRRPIIQFVESGDDKNSNYFSMDSMEGKRSPYAGLQLGAAKKPPVTFAEKGELRKSIFSESRKPTVSIMEPGETRRNSYPRADTGLFSRSKSGSEEVLCDSCIGNKQKAVKSCLVCQASFCELHLKPHLEGAAFRDHQLLEPIRDFEARKCPVHGKTMELFCQTDQTCICYLCMFQEHKNHSTVTVEEAKAEKETELSLQKEQLQLKIIEIEDEAEKWQKEKDRIKSFTTNEKAILEQNFRDLVRDLEKQKEEVRAALEQREQDAVDQVKVIMDALDERAKVLHEDKQTREQLHSISDSVLFLQEFGALMSNYSLPPPLPTYHVLLEGEGLGQSLGNFKDDLLNVCMRHVEKMCKADLSRNFIERNHMENGGDHRYVNNYTNSFGGEWSAPDTMKRYSMYLTPKGGVRTSYQPSSPGRFTKETTQKNFNNLYGTKGNYTSRVWEYSSSIQNSDNDLPVVQGSSSFSLKGYPSLMRSQSPKAQPQTWKSGKQTMLSHYRPFYVNKGNGIGSNEAP
Take B3: the binding entry with TRIM29-Myc (human) [6], with TRIM29-Myc (human) [7] and with TRIM29-Myc (human) [8] was “binds” in each case.

B4: TRIM29-HA (protein, UniProt Q14134 1-588)
chain: MEAADASRSNGSSPEARDARSPSGPSGSLENGTKADGKDAKTTNGHGGEAAEGKSLGSALKPGEGRSALFAGNEWRRPIIQFVESGDDKNSNYFSMDSMEGKRSPYAGLQLGAAKKPPVTFAEKGELRKSIFSESRKPTVSIMEPGETRRNSYPRADTGLFSRSKSGSEEVLCDSCIGNKQKAVKSCLVCQASFCELHLKPHLEGAAFRDHQLLEPIRDFEARKCPVHGKTMELFCQTDQTCICYLCMFQEHKNHSTVTVEEAKAEKETELSLQKEQLQLKIIEIEDEAEKWQKEKDRIKSFTTNEKAILEQNFRDLVRDLEKQKEEVRAALEQREQDAVDQVKVIMDALDERAKVLHEDKQTREQLHSISDSVLFLQEFGALMSNYSLPPPLPTYHVLLEGEGLGQSLGNFKDDLLNVCMRHVEKMCKADLSRNFIERNHMENGGDHRYVNNYTNSFGGEWSAPDTMKRYSMYLTPKGGVRTSYQPSSPGRFTKETTQKNFNNLYGTKGNYTSRVWEYSSSIQNSDNDLPVVQGSSSFSLKGYPSLMRSQSPKAQPQTWKSGKQTMLSHYRPFYVNKGNGIGSNEAP
On to B4, for which the binding entry with TRIM21-Flag (human) [9] is given as “binds”.

B5: TRIM29-Myc K561R (protein, UniProt Q14134 1-588)
chain: MEAADASRSNGSSPEARDARSPSGPSGSLENGTKADGKDAKTTNGHGGEAAEGKSLGSALKPGEGRSALFAGNEWRRPIIQFVESGDDKNSNYFSMDSMEGKRSPYAGLQLGAAKKPPVTFAEKGELRKSIFSESRKPTVSIMEPGETRRNSYPRADTGLFSRSKSGSEEVLCDSCIGNKQKAVKSCLVCQASFCELHLKPHLEGAAFRDHQLLEPIRDFEARKCPVHGKTMELFCQTDQTCICYLCMFQEHKNHSTVTVEEAKAEKETELSLQKEQLQLKIIEIEDEAEKWQKEKDRIKSFTTNEKAILEQNFRDLVRDLEKQKEEVRAALEQREQDAVDQVKVIMDALDERAKVLHEDKQTREQLHSISDSVLFLQEFGALMSNYSLPPPLPTYHVLLEGEGLGQSLGNFKDDLLNVCMRHVEKMCKADLSRNFIERNHMENGGDHRYVNNYTNSFGGEWSAPDTMKRYSMYLTPKGGVRTSYQPSSPGRFTKETTQKNFNNLYGTKGNYTSRVWEYSSSIQNSDNDLPVVQGSSSFSLKGYPSLMRSQSPKAQPQTWRSGKQTMLSHYRPFYVNKGNGIGSNEAP
For B5, the binding result in the assay with TRIM29-Myc K561R (human) is listed as “binds”.

The record behind these values is paper PMC13156314.
